# No constants are given. Whether binding was seen depends on the method and setting. In cells and extracts the contact can be indirect. Some results given as binding are weak or reduced against the parent protein; the word gives no strength.
# T1: endogenous IRF3 of THP-1 cells (human (endogenous in THP-1)) (UniProt Q14653)
# T1 sequence: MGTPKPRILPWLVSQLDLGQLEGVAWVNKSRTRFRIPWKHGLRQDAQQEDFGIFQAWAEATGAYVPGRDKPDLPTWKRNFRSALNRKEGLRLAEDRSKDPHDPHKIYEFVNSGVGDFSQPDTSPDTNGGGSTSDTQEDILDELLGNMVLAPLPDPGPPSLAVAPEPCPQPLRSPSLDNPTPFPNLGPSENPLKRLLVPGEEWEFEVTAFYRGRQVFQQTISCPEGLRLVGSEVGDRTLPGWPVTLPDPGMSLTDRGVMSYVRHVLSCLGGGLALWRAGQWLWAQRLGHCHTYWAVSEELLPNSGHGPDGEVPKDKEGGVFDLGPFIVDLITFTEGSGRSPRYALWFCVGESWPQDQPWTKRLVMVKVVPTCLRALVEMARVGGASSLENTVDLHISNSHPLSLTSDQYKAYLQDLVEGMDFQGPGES
# T2: endogenous NDP52 of mouse cells (RAW 264.7, BMDMs) (mouse (endogenous in RAW 264.7 and BMDMs)) (UniProt A2A6M5)
# T2 sequence: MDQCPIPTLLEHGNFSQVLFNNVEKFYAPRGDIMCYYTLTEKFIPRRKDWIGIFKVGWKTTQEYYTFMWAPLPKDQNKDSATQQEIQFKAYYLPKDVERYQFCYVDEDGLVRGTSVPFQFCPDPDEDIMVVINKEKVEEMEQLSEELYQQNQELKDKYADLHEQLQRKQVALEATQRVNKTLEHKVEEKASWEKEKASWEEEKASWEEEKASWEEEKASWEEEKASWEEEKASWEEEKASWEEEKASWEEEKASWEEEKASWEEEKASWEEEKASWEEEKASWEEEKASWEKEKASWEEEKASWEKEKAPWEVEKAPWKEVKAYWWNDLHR
# Key:
# [1] = biological target: T1, endogenous IRF3 of THP-1 cells (human (endogenous in THP-1)); assay: co-IP; endogenous proteins; extracts of RAW 264.7 cells, BMDMs and THP-1 cells stimulated with P.y. gDNA (1 μg) for various times; IP with anti-IRF3 antibody, immunoblot
# [2] = biological target: T2, endogenous NDP52 of mouse cells (RAW 264.7, BMDMs) (mouse (endogenous in RAW 264.7 and BMDMs)); assay: co-IP; endogenous proteins; WT RAW 264.7 cells and Flag-SHIP1 doxy-inducible RAW 264.7 cells; IP with anti-NDP52 antibody, immunoblot
binding [1],binding [2],Binder
binds,–,"endogenous SHIP1 of THP-1 cells (protein, UniProt Q92835 1-1189) MVPCWNHGNITRSKAEELLSRTGKDGSFLVRASESISRAYALCVLYRNCVYTYRILPNEDDKFTVQASEGVSMRFFTKLDQLIEFYKKENMGLVTHLQYPVPLEEEDTGDDPEEDTVESVVSPPELPPRNIPLTASSCEAKEVPFSNENPRATETSRPSLSETLFQRLQSMDTSGLPEEHLKAIQDYLSTQLAQDSEFVKTGSSSLPHLKKLTTLLCKELYGEVIRTLPSLESLQRLFDQQLSPGLRPRPQVPGEANPINMVSKLSQLTSLLSSIEDKVKALLHEGPESPHRPSLIPPVTFEVKAESLGIPQKMQLKVDVESGKLIIKKSKDGSEDKFYSHKKILQLIKSQKFLNKLVILVETEKEKILRKEYVFADSKKREGFCQLLQQMKNKHSEQPEPDMITIFIGTWNMGNAPPPKKITSWFLSKGQGKTRDDSADYIPHDIYVIGTQEDPLSEKEWLEILKHSLQEITSVTFKTVAIHTLWNIRIVVLAKPEHENRISHICTDNVKTGIANTLGNKGAVGVSFMFNGTSLGFVNSHLTSGSEKKLRRNQNYMNILRFLALGDKKLSPFNITHRFTHLFWFGDLNYRVDLPTWEAETIIQKIKQQQYADLLSHDQLLTERREQKVFLHFEEEEITFAPTYRFERLTRDKYAYTKQKATGMKYNLPSWCDRVLWKSYPLVHVVCQSYGSTSDIMTSDHSPVFATFEAGVTSQFVSKNGPGTVDSQGQIEFLRCYATLKTKSQTKFYLEFHSSCLESFVKSQEGENEEGSEGELVVKFGETLPKLKPIISDPEYLLDQHILISIKSSDSDESYGEGCIALRLEATETQLPIYTPLTHHGELTGHFQGEIKLQTSQGKTREKLYDFVKTERDESSGPKTLKSLTSHDPMKQWEVTSRAPPCSGSSITEIINPNYMGVGPFGPPMPLHVKQTLSPDQQPTAWSYDQPPKDSPLGPCRGESPPTPPGQPPISPKKFLPSTANRGLPPRTQESRPSDLGKNAGDTLPQEDLPLTKPEMFENPLYGSLSSFPKPAPRKDQESPKMPRKEPPPCPEPGILSPSIVLTKAQEADRGEGPGKQVPAPRLRSFTCSSSAEGRAAGGDKSQGKPKTPVSSQAPVPAKRPIKPSRSEINQQTPPTPTPRPPLPVKSPAVLHLQHSKGRDYRDNTELPHHGKHRPEEGPPGPLGRTAMQ"
–,binds,"endogenous IRF3 of mouse cells (RAW 264.7, BMDMs) (protein, UniProt P70671 1-419) METPKPRILPWLVSQLDLGQLEGVAWLDESRTRFRIPWKHGLRQDAQMADFGIFQAWAEASGAYTPGKDKPDVSTWKRNFRSALNRKEVLRLAADNSKDPYDPHKVYEFVTPGARDFVHLGASPDTNGKSSLPHSQENLPKLFDGLILGPLKDEGSSDLAIVSDPSQQLPSPNVNNFLNPAPQENPLKQLLAEEQWEFEVTAFYRGRQVFQQTLFCPGGLRLVGSTADMTLPWQPVTLPDPEGFLTDKLVKEYVGQVLKGLGNGLALWQAGQCLWAQRLGHSHAFWALGEELLPDSGRGPDGEVHKDKDGAVFDLRPFVADLIAFMEGSGHSPRYTLWFCMGEMWPQDQPWVKRLVMVKVVPTCLKELLEMAREGGASSLKTVDLHISNSQPISLTSDQYKAYLQDLVEDMDFQATGNI"
